Experimental data: PubChem BioAssay AID1259308 (NCATS, 2017)
Screen: 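Candidate targets for better recombinant protein yield in mammalian cells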 (primary screen). Cell system: human HEK293 embryonic kidney cells stably expressing firefly luciferase (HEK-CMV-Luc2-Hygro). Reagent: single siRNA against human genes, 0.8 pmol siRNA per well. Time to read-out: 72 h. Measurement: 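Reporter luminescence and viable-cell signal on separate replicate plates, given as percent of non-targeting control and median/MAD z-scores, plus per-cell luciferase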. Scale: total luciferase, z-score: higher = more reporter protein produced. Call rule: 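An siRNA counts as active if its total luciferase robust z-score exceeds 3; genes with two or more such siRNAs out of three were retested with fresh siRNAs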. Meaning of the calls: active = raised luciferase; inactive = no rise.
The deposit covers about 59,000 reagents; shown is a random part of them. Of all reagents, about 1,510 (2.6%) are marked active. 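Calls use total luciferase alone and ignore viability, so some active siRNAs may act by altering cell number.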 The numbers tell different reagents against one gene apart. Not all columns of the deposit are shown. Reagent sequences are not shown.

| gene knocked down | reagent | total luciferase, z-score | Call |
| --- | --- | --- | --- |
| RPN1 (ribophorin I) | 1 | 0.0661 | inactive |
| RPN1 (ribophorin I) | 2 | -0.318 | inactive |
| RPN1 (ribophorin I) | 3 | 0.821 | inactive |
| CPXM2 (carboxypeptidase X, M14 family member 2) | 1 | -2.04 | inactive |
| CPXM2 (carboxypeptidase X, M14 family member 2) | 2 | -0.695 | inactive |
| CPXM2 (carboxypeptidase X, M14 family member 2) | 3 | -0.769 | inactive |
| VN1R4 (vomeronasal 1 receptor 4) | 1 | 2.52 | inactive |
| VN1R4 (vomeronasal 1 receptor 4) | 2 | -1.74 | inactive |
| VN1R4 (vomeronasal 1 receptor 4) | 3 | 0.567 | inactive |
| IARS1 (isoleucyl-tRNA synthetase 1) | 1 | -0.319 | inactive |
| IARS1 (isoleucyl-tRNA synthetase 1) | 2 | -1.54 | inactive |
| IARS1 (isoleucyl-tRNA synthetase 1) | 3 | 0.651 | inactive |
| SQSTM1 (sequestosome 1) | 1 | 0.885 | inactive |
| SQSTM1 (sequestosome 1) | 2 | -0.143 | inactive |
| SQSTM1 (sequestosome 1) | 3 | -0.744 | inactive |
| FNDC11 (fibronectin type III domain containing 11) | 1 | 0.906 | inactive |
| FNDC11 (fibronectin type III domain containing 11) | 2 | -0.695 | inactive |
| FNDC11 (fibronectin type III domain containing 11) | 3 | 1.17 | inactive |
| GLIPR1L2 (GLIPR1 like 2) | 1 | -0.832 | inactive |
| GLIPR1L2 (GLIPR1 like 2) | 2 | -0.376 | inactive |
| GLIPR1L2 (GLIPR1 like 2) | 3 | -0.033 | inactive |
| RGP1 (RGP1 partner of RAB6A GEF complex) | 1 | 0.621 | inactive |
| RGP1 (RGP1 partner of RAB6A GEF complex) | 2 | -0.73 | inactive |
| RGP1 (RGP1 partner of RAB6A GEF complex) | 3 | 1.23 | inactive |
| TBL2 (transducin beta like 2) | 1 | -0.0822 | inactive |
| TBL2 (transducin beta like 2) | 2 | 0.425 | inactive |
| TBL2 (transducin beta like 2) | 3 | 1.2 | inactive |
| MRPL27 (mitochondrial ribosomal protein L27) | 1 | 0.452 | inactive |
| MRPL27 (mitochondrial ribosomal protein L27) | 2 | -1.32 | inactive |
| MRPL27 (mitochondrial ribosomal protein L27) | 3 | -0.448 | inactive |

Targets listed so far whose gene name starts with T or t:
| gene knocked down | reagent | total luciferase, z-score | Call |
| --- | --- | --- | --- |
| TBL2 (transducin beta like 2) | 1 | -0.0822 | inactive |
| TBL2 (transducin beta like 2) | 2 | 0.425 | inactive |
| TBL2 (transducin beta like 2) | 3 | 1.2 | inactive |

Continued:
| gene knocked down | reagent | total luciferase, z-score | Call |
| --- | --- | --- | --- |
| PHF12 (PHD finger protein 12) | 1 | -0.0849 | inactive |
| PHF12 (PHD finger protein 12) | 2 | -0.693 | inactive |
| PHF12 (PHD finger protein 12) | 3 | 0.676 | inactive |
| IRS1 (insulin receptor substrate 1) | 1 | 0.796 | inactive |
| IRS1 (insulin receptor substrate 1) | 2 | -0.0741 | inactive |
| IRS1 (insulin receptor substrate 1) | 3 | 1.2 | inactive |
| RAB3GAP1 (RAB3 GTPase activating protein catalytic subunit 1) | 1 | 0.252 | inactive |
| RAB3GAP1 (RAB3 GTPase activating protein catalytic subunit 1) | 2 | -0.234 | inactive |
| RAB3GAP1 (RAB3 GTPase activating protein catalytic subunit 1) | 3 | -0.713 | inactive |
| COG2 (component of oligomeric golgi complex 2) | 1 | -1.69 | inactive |
| COG2 (component of oligomeric golgi complex 2) | 2 | 2.4 | inactive |
| COG2 (component of oligomeric golgi complex 2) | 3 | -1.53 | inactive |
| CALHM5 (calcium homeostasis modulator family member 5) | 1 | 1.98 | inactive |
| CALHM5 (calcium homeostasis modulator family member 5) | 2 | 1.71 | inactive |
| CALHM5 (calcium homeostasis modulator family member 5) | 3 | -2.11 | inactive |
| ACE (angiotensin I converting enzyme) | 1 | 2.33 | inactive |
| ACE (angiotensin I converting enzyme) | 2 | -1.19 | inactive |
| ACE (angiotensin I converting enzyme) | 3 | 1.19 | inactive |
| THAP12P1 (THAP domain containing 12 pseudogene 1) | 1 | 0.998 | inactive |
| THAP12P1 (THAP domain containing 12 pseudogene 1) | 2 | -1.15 | inactive |
| THAP12P1 (THAP domain containing 12 pseudogene 1) | 3 | -0.961 | inactive |
| ADAMDEC1 (ADAM like decysin 1) | 1 | 0.0513 | inactive |
| ADAMDEC1 (ADAM like decysin 1) | 2 | -0.903 | inactive |
| ADAMDEC1 (ADAM like decysin 1) | 3 | -0.558 | inactive |
| XBP1 (X-box binding protein 1) | 1 | -0.392 | inactive |
| XBP1 (X-box binding protein 1) | 2 | -0.111 | inactive |
| XBP1 (X-box binding protein 1) | 3 | 4.23 | active |
| OR9Q1 (olfactory receptor family 9 subfamily Q member 1) | 1 | -1.11 | inactive |
| OR9Q1 (olfactory receptor family 9 subfamily Q member 1) | 2 | 0.658 | inactive |
| OR9Q1 (olfactory receptor family 9 subfamily Q member 1) | 3 | 0.765 | inactive |
| PTPRZ1 (protein tyrosine phosphatase receptor type Z1) | 1 | 0.123 | inactive |
| PTPRZ1 (protein tyrosine phosphatase receptor type Z1) | 2 | 2.17 | inactive |
| PTPRZ1 (protein tyrosine phosphatase receptor type Z1) | 3 | -0.274 | inactive |
| MROH1 (maestro heat like repeat family member 1) | 1 | -0.139 | inactive |
| MROH1 (maestro heat like repeat family member 1) | 2 | -1.78 | inactive |
| MROH1 (maestro heat like repeat family member 1) | 3 | -0.826 | inactive |
| PGPEP1 (pyroglutamyl-peptidase I) | 1 | 1.04 | inactive |
| PGPEP1 (pyroglutamyl-peptidase I) | 2 | -0.68 | inactive |
| PGPEP1 (pyroglutamyl-peptidase I) | 3 | 0.6 | inactive |
| RIDA (reactive intermediate imine deaminase A) | 1 | 0.242 | inactive |
| RIDA (reactive intermediate imine deaminase A) | 2 | -1.15 | inactive |
| RIDA (reactive intermediate imine deaminase A) | 3 | -0.289 | inactive |
| PLA2G2C (phospholipase A2 group IIC) | 1 | 0.804 | inactive |
| PLA2G2C (phospholipase A2 group IIC) | 2 | -0.482 | inactive |
| PLA2G2C (phospholipase A2 group IIC) | 3 | -0.0119 | inactive |
